PubChem BioAssay AID504444 (National Center for Advancing Translational Sciences (NCATS), 2011)
Hit rate of the full screen: of about 360,000 compounds, about 7,500 (2.1%) were called active. The inconclusive results got no clear call from the source; some entries with a clear call stand among them for comparison. Calls come from the whole dose curve; as a rule, active = well fitted inhibition curve with a large enough effect; inconclusive = small, poorly fitted or top-dose-only effect, or effect the other way; inactive = flat fitted curve, though single readings scatter. Potencies of inconclusive entries are doubtful fits and often do not repeat.

Test: Nrf2 qHTS screen for inhibitors; note: nearly all actives have a fitted effect of over 60% in size
Conditions: A549 ARE-Fluc reporter, luciferase luminescence, 18-24 h; activity change, negative = inhibition: at 46 µM (top of the series)
How it was run: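 A549 ARE_Fluc cells (5000/well, 5% FBS OPTI-MEM) pre-incubated 2 h, then treated with compounds 18-24 h at 37C/5% CO2 in concentration-response. CellTiter-Fluor viability read first; BugLite luciferase luminescence after 15 min at room temperature gives Nrf2 activity.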
% is set by controls: 0 for no effect and ±100 for the full control effect; potency is the fitted concentration of half-maximal effect.

Row | Structure (SMILES) | Potency | activity change, negative = inhibition
1 | Cc1ccccc1C(=O)NNC(=S)NC(=O)c1cccs1 | active: 14.6 µM | 
2 | COc1ccc2c(=O)c3c(=O)n(Cc4ccco4)c(-c4ccc(C)cc4)nc3oc2c1 | inconclusive: 29.1 µM [falling, single point] | 
3 | COC(=O)C1=C(C)NC(=O)/C1=C\c1cc(C)n(-c2c(C)cccc2C)c1C | active: 23.1 µM | 
4 | CCCCN(CCCC)Cc1ccc(C(=O)NNC(=O)Nc2ccc(Cl)cc2)o1 | inconclusive: 3.26 µM [activator, full curve, poor fit] | 
5 | CC(NCC1COc2ccccc2O1)C1COc2ccccc2O1 (centres undefined) |  | inactive: 3.94%
6 | Cc1ccc(NS(=O)(=O)c2ccc(C)c(NC(=O)COc3ccccc3)c2)c(C)c1 |  | inactive: -14%
7 | O=C1C(CCCNC(=S)NCc2ccccc2)NC(=S)N1Cc1ccccc1 (centres undefined) | inconclusive: 29.1 µM [falling, partial curve, poor fit] | 
8 | Cc1ccccc1-n1nc(CSc2nc3ccccc3[nH]2)c(-c2ccccc2)c1N | active: 23.1 µM | 
9 | COc1ccc(Br)cc1/C=N/NC(=O)Cn1nnnc1N | inconclusive: 13 µM [activator, partial curve, poor fit] | 
10 | Cc1ccccc1NC(=O)C1CCC(CNS(=O)(=O)c2ccc3c(c2)C(C)(C)C(=O)N3C)CC1 (centres undefined) | inconclusive: 20.6 µM [falling, single point] | 
11 | COc1cc(NC(=O)CSc2nc3[nH]ncc3c(=O)n2-c2ccc(Cl)cc2)cc(OC)c1 | inconclusive: 29.1 µM [falling, single point] | 
12 | COc1ccc(OCc2ccc(-c3nc(C#N)c(N4CCC(C)CC4)o3)o2)cc1 |  | inactive: -32.1%
13 | COc1ccc(-c2cc3c(=O)n(CC(=O)NCCCN4CCN(Cc5ccccc5)CC4)ncn3n2)cc1 | inconclusive: 0.116 µM [falling, full curve, poor fit] | 
14 | O=c1oc(-c2ccco2)nc2ccccc12 |  | inactive: -0.034%
15 | O=C(NCCC(=O)N1CCc2ccccc21)c1ccco1 | inconclusive: 2.06 µM [activator, full curve, poor fit] | 
16 | O=C(c1ccc(S(=O)(=O)N2CCOCC2)cc1)N1CCN(c2cccc(Cl)c2)CC1 |  | inactive: 9.25%
17 | O=C(O)c1ccc(-n2ncc3c2/C(=C\c2cccc([N+](=O)[O-])c2)CC3)cc1 | inconclusive: 2.06 µM [activator, full curve, poor fit] | 
18 | CC#CC[N+](C)(CC#CC)CC(=O)c1ccccc1 | inconclusive: 20.6 µM [activator, partial curve, poor fit] | 
19 | Cc1ccc(NC(=O)c2ccc3snnc3c2)cc1Cl | inconclusive: 1.84 µM [activator, full curve, poor fit] | 
20 | CCc1ccc(S(=O)(=O)c2nnn(-c3ccc(F)cc3)c2N)cc1 | active: 13 µM | 
21 | C=C(C)Cn1c(SCC(=O)Nc2cc(C)ccc2C)nc2sc3c(c2c1=O)CCCC3 | inconclusive: 0.0046 µM [falling, full curve, poor fit] | 
22 | Cc1ccc(CNc2ncccc2-c2nc3cc(Cl)ccc3o2)cc1 | inconclusive: 0.58 µM [falling, partial curve, poor fit] | 

Row | Structure (SMILES) | Potency | activity change, negative = inhibition
23 | CCOc1ccc(/C=N/NC(=O)c2ccoc2C)cc1OC | inconclusive: 7.31 µM [activator, partial curve] | 
24 | CCOc1ccccc1C(=O)N(CN1CCCC1=O)c1ccc(C)c(Cl)c1 | inconclusive: 29.1 µM [falling, single point] | 
25 | O=C(Cc1ccc(S(=O)(=O)N2CCOCC2)s1)Nc1cc(C(F)(F)F)ccc1N1CCCC1 | inconclusive: 16.4 µM [falling, partial curve] | 
26 | CCN(CC(=O)Nc1ccc(OC)cc1)C(=O)Cc1coc2cc(C)c(C)cc12 |  | inactive: -8.68%
27 | O=c1c2cc(-c3ccccc3)sc2nc2n1N=C(c1cccs1)CS2 | inconclusive: 0.517 µM [activator, partial curve, poor fit] | 
28 | COc1cccc(C=NNC(=O)C(C)SC(C)C(=O)NN=Cc2cccc(OC)c2)c1 (centres undefined) | inconclusive: 14.6 µM [falling, partial curve, poor fit] | 
29 | Cc1nc(NC(=O)c2oc3ccccc3c2C)sc1C(=O)N(C)C | inconclusive: 6.51 µM [activator, full curve, poor fit] | 
30 | O=C(Nc1ccc2oc(-c3ccncc3)nc2c1)c1ccc(Br)o1 | inconclusive: 1.3 µM [falling, partial curve, poor fit] | 
31 | Cc1ccc(NS(=O)(=O)c2c(C)[nH]c(C)c2C(=O)N2CCCCC2)cc1F | inconclusive: 20.6 µM [falling, single point] | 
32 | COc1ccc(/C=C\c2onc(C)c2S(=O)(=O)N2CCC(C(=O)Nc3ccc(Cl)cc3)CC2)cc1 |  | inactive: -1.32%
33 | COC(=O)CSc1nnc(-c2ccccc2OC)o1 | inconclusive: 6.51 µM [activator, single point] | 
34 | Cn1nc(C(F)(F)F)c2cc(NC(=O)OCc3ccc(C(C)(C)C)cc3)sc21 | inconclusive: 20.6 µM [falling, single point] | 
35 | CSc1ncccc1C(=O)Nc1cccc(S(=O)(=O)N2CCCCCC2)c1 | inconclusive: 20.6 µM [falling, single point] | 
36 | CCc1ccc(NC(=O)C2CCCN(S(=O)(=O)c3ccc4c(c3)CCCN4C(C)=O)C2)cc1 (centres undefined) | inconclusive: 0.411 µM [falling, full curve, poor fit] | 
37 | O=C(CSc1nc2ccc([N+](=O)[O-])cc2[nH]1)c1ccc2ccccc2c1 | inconclusive: 29.1 µM [falling, single point] | 
38 | COc1ccc(-c2noc(-c3ccc(C)cc3)n2)cc1 | inconclusive: 20.6 µM [activator, partial curve] | 
39 | O=C(COC(=O)/C=C/c1ccc(Cl)cc1)NCCc1ccccc1 | inconclusive: 0.731 µM [activator, full curve, poor fit] | 
40 | COc1ccc(C(=O)N2CC(=O)Nc3ccc(C)cc3C2c2ccccc2)c(OC)c1 (centres undefined) |  | inactive: 0.945% [at 9.27 µM]
41 | Cn1c(SCc2ccccc2)nnc1-c1ccc(O)cc1 | inconclusive: 5.8 µM [activator, partial curve] | 
42 | CCCn1c(=O)c(C(=O)Nc2cccc(C)c2)c(O)c2ccccc21 | inconclusive: 23.1 µM [activator, single point] | 
43 | COc1ccc(-c2nnc(SCc3ncc(-c4ccccc4)o3)o2)cc1 | inconclusive: 0.0046 µM [activator, full curve, poor fit] | 
44 | COc1ccccc1C(=O)Nc1c2c(nn1-c1cccc(C)c1C)CS(=O)(=O)C2 | inconclusive: 29.1 µM [falling, single point] | 

Row | Structure (SMILES) | Potency | activity change, negative = inhibition
45 | CCOC(=O)c1ccc(N2CCN(c3ccc(F)cc3)CC2)c(NC(=O)Nc2cccc(OC)c2)c1 |  | inactive: -28.3%
46 | Cc1cccc2[nH]c(-c3ccc(NC(=O)c4ccco4)cc3)nc12 |  | inactive: 0.17%
47 | CC1CCCN(S(=O)(=O)c2ccc(NC(=O)C3CC(=O)N(c4ccccc4)C3)cc2)C1 (centres undefined) | inconclusive: 20.6 µM [falling, partial curve, poor fit] | 
48 | Cc1cc(C)c(NC(=O)c2cc(=O)c3ccccc3o2)c(C)c1 | inconclusive: 16.4 µM [falling, partial curve] | 
49 | C=CCOc1c(CNc2cccc(C(=O)O)c2)cccc1OC | inconclusive: 4.11 µM [activator, full curve, poor fit] | 
50 | O=C1c2ccccc2C(Nc2ccc3c(c2)OCCO3)N1Cc1ccccc1 (centres undefined) | inconclusive: 32.6 µM [falling, single point] | 
51 | COc1ccccc1N1CCN(S(=O)(=O)c2ccc3[nH]c4c(c3c2)CCCC4)CC1 | active: 23.1 µM | 
52 | O=C(CN1C(=O)c2ccccc2C1=O)NCCc1c[nH]c2ccc(Cl)cc12 |  | inactive: 1.52%
53 | O=C1C2CC=CCC2C(=O)N1c1ccc(NCCc2ccc(O)cc2)c([N+](=O)[O-])c1 (centres undefined) | inconclusive: 29.1 µM [falling, single point] | 
54 | Cc1cc2nc(N)sc2cc1C | inconclusive: 1.84 µM [activator, full curve, poor fit] | 
55 | C=Cc1cc2c(s1)c1cnn(Cc3ccccc3F)c(=O)c1n2C |  | inactive: -3.92%
56 | O=C(C1CCCN(Cc2ccc([N+](=O)[O-])cc2)C1)N1CCCCC1 (centres undefined) | inconclusive: 25.9 µM [falling, partial curve, poor fit] | 
57 | N/C(=N\OC(=O)COc1ccc([N+](=O)[O-])cc1)c1cccnc1 | inconclusive: 0.0731 µM [falling, full curve, poor fit] | 
58 | NC(=O)C1CCN(c2nc(-c3ccccc3Br)cs2)CC1 | inconclusive: 10.3 µM [activator, partial curve] | 
59 | N#CCc1c(C#N)c(N)nc(N2CCN(S(=O)(=O)c3ccccc3)CC2)c1C#N | inconclusive: 9.2 µM [falling, partial curve, poor fit] | 
60 | CCOc1ccccc1N1CCN(C(=O)c2cc3cc(OC)ccc3[nH]2)CC1 | inconclusive: 10.3 µM [falling, partial curve] | 
61 | Nc1cc(S(=O)(=O)N2CCCCC2)ccc1Oc1ccc(Cl)cc1 | inconclusive: 10.3 µM [falling, partial curve, poor fit] | 
62 | Cc1cc(C(=O)NNC(=O)c2nn(C)c(=O)c3ccccc23)c(C)o1 | inconclusive: 9.2 µM [falling, partial curve, poor fit] | 
63 | CN(c1ccccc1)S(=O)(=O)c1ccc(C(=O)Nc2nnc(-c3ccc(F)cc3)o2)cc1 | active: 23.1 µM | 
64 | O=C1[C@H]2[C@@H](/C=C/c3ccccc3)N3C(=O)CN(Cc4ccccn4)C(=O)[C@@]3(Cc3ccccc3)[C@H]2C(=O)N1c1ccccc1 | inconclusive: 29.1 µM [falling, single point] | 

An excerpt of these results, as comma-separated lines.
Row,Structure (SMILES),Potency,"activity change, negative = inhibition"
51,COc1ccccc1N1CCN(S(=O)(=O)c2ccc3[nH]c4c(c3c2)CCCC4)CC1,active: 23.1 µM,
52,O=C(CN1C(=O)c2ccccc2C1=O)NCCc1c[nH]c2ccc(Cl)cc12,,inactive: 1.52%
53,O=C1C2CC=CCC2C(=O)N1c1ccc(NCCc2ccc(O)cc2)c([N+](=O)[O-])c1 (centres undefined),"inconclusive: 29.1 µM [falling, single point]",
54,Cc1cc2nc(N)sc2cc1C,"inconclusive: 1.84 µM [activator, full curve, poor fit]",
55,C=Cc1cc2c(s1)c1cnn(Cc3ccccc3F)c(=O)c1n2C,,inactive: -3.92%
56,O=C(C1CCCN(Cc2ccc([N+](=O)[O-])cc2)C1)N1CCCCC1 (centres undefined),"inconclusive: 25.9 µM [falling, partial curve, poor fit]",
57,N/C(=N\OC(=O)COc1ccc([N+](=O)[O-])cc1)c1cccnc1,"inconclusive: 0.0731 µM [falling, full curve, poor fit]",
58,NC(=O)C1CCN(c2nc(-c3ccccc3Br)cs2)CC1,"inconclusive: 10.3 µM [activator, partial curve]",
59,N#CCc1c(C#N)c(N)nc(N2CCN(S(=O)(=O)c3ccccc3)CC2)c1C#N,"inconclusive: 9.2 µM [falling, partial curve, poor fit]",
60,CCOc1ccccc1N1CCN(C(=O)c2cc3cc(OC)ccc3[nH]2)CC1,"inconclusive: 10.3 µM [falling, partial curve]",
61,Nc1cc(S(=O)(=O)N2CCCCC2)ccc1Oc1ccc(Cl)cc1,"inconclusive: 10.3 µM [falling, partial curve, poor fit]",
62,Cc1cc(C(=O)NNC(=O)c2nn(C)c(=O)c3ccccc23)c(C)o1,"inconclusive: 9.2 µM [falling, partial curve, poor fit]",
63,CN(c1ccccc1)S(=O)(=O)c1ccc(C(=O)Nc2nnc(-c3ccc(F)cc3)o2)cc1,active: 23.1 µM,
64,O=C1[C@H]2[C@@H](/C=C/c3ccccc3)N3C(=O)CN(Cc4ccccn4)C(=O)[C@@]3(Cc3ccccc3)[C@H]2C(=O)N1c1ccccc1,"inconclusive: 29.1 µM [falling, single point]",
